# Results: the supplement of paper PMC12819154, “High-throughput peptide-centric local stability assay extends protein–ligand identification to membrane proteins, tissues and bacteria” (Nature Structural & Molecular Biology, 2025)
# Chains of the proteins cited; added tags and fusions are not shown. Lines headed by an entry give the natural chain unless they say otherwise; changes in a name come on top.
# UniProt Q9NT62, whole entry: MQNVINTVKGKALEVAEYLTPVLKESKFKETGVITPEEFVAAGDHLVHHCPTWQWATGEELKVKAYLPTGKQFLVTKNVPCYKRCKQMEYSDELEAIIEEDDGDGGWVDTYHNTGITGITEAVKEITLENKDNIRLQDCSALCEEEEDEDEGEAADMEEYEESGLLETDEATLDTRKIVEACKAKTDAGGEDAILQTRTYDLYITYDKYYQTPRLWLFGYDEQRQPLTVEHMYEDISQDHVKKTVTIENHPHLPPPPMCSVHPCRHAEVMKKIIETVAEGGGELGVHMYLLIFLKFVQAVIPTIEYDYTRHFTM
# UniProt Q9NVE7: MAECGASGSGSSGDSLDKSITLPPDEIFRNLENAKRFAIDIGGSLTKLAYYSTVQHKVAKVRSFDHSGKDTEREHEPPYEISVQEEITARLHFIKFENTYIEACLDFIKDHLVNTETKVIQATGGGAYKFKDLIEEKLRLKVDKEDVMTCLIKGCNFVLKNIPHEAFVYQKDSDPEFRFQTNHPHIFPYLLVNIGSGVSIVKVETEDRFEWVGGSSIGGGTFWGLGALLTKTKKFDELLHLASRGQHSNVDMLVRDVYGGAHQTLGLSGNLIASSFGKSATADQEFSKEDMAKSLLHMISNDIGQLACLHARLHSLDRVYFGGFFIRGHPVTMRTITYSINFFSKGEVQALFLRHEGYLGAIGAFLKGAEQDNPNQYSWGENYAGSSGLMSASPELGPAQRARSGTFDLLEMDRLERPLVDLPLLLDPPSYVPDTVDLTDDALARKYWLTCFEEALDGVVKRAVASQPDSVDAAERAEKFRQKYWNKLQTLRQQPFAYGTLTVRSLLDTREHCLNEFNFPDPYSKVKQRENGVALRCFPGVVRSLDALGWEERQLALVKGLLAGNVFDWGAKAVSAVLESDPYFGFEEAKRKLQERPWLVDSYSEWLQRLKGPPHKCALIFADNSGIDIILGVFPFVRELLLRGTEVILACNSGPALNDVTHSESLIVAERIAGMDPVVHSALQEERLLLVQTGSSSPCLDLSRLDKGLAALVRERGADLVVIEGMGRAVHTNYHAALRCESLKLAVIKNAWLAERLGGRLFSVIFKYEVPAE
# UniProt Q9NV70: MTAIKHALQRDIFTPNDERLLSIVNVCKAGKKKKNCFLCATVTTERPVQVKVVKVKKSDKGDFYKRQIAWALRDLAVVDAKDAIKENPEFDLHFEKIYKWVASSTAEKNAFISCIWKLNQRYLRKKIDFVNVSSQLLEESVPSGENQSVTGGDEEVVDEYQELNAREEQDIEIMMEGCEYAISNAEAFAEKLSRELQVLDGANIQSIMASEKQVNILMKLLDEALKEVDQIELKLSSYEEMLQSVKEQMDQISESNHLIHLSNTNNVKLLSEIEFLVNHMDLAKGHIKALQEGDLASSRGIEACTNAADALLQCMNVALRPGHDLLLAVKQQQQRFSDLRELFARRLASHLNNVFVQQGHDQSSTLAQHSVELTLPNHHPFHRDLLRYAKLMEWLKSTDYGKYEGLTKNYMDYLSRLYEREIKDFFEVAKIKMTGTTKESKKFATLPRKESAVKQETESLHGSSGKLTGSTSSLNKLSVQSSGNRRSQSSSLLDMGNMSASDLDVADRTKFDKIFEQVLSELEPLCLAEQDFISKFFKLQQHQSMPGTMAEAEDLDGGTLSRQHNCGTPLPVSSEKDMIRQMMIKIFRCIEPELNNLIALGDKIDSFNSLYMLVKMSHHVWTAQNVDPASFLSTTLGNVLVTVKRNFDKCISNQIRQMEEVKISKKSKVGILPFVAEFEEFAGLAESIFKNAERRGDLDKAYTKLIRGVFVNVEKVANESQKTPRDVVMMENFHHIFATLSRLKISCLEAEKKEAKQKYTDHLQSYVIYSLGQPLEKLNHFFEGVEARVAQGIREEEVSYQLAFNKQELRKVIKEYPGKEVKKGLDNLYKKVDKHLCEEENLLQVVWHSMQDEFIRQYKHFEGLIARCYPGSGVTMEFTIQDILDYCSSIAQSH
# UniProt Q9NZ32, whole entry: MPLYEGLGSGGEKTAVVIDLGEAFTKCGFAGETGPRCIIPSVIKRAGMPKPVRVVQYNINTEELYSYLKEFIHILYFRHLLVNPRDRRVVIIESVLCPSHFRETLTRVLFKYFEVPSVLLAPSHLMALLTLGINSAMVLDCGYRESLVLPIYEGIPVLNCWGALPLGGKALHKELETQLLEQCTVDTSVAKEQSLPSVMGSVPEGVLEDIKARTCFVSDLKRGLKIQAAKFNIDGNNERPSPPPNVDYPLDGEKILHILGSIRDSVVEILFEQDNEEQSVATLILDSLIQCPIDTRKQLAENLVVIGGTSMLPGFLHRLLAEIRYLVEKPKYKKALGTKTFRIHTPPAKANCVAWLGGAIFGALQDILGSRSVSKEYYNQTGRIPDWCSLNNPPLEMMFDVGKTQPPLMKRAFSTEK
# UniProt Q9NR33: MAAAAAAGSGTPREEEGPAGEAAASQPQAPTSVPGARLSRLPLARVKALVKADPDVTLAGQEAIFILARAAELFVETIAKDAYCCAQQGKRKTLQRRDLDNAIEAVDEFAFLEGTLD
# UniProt Q9NRY4: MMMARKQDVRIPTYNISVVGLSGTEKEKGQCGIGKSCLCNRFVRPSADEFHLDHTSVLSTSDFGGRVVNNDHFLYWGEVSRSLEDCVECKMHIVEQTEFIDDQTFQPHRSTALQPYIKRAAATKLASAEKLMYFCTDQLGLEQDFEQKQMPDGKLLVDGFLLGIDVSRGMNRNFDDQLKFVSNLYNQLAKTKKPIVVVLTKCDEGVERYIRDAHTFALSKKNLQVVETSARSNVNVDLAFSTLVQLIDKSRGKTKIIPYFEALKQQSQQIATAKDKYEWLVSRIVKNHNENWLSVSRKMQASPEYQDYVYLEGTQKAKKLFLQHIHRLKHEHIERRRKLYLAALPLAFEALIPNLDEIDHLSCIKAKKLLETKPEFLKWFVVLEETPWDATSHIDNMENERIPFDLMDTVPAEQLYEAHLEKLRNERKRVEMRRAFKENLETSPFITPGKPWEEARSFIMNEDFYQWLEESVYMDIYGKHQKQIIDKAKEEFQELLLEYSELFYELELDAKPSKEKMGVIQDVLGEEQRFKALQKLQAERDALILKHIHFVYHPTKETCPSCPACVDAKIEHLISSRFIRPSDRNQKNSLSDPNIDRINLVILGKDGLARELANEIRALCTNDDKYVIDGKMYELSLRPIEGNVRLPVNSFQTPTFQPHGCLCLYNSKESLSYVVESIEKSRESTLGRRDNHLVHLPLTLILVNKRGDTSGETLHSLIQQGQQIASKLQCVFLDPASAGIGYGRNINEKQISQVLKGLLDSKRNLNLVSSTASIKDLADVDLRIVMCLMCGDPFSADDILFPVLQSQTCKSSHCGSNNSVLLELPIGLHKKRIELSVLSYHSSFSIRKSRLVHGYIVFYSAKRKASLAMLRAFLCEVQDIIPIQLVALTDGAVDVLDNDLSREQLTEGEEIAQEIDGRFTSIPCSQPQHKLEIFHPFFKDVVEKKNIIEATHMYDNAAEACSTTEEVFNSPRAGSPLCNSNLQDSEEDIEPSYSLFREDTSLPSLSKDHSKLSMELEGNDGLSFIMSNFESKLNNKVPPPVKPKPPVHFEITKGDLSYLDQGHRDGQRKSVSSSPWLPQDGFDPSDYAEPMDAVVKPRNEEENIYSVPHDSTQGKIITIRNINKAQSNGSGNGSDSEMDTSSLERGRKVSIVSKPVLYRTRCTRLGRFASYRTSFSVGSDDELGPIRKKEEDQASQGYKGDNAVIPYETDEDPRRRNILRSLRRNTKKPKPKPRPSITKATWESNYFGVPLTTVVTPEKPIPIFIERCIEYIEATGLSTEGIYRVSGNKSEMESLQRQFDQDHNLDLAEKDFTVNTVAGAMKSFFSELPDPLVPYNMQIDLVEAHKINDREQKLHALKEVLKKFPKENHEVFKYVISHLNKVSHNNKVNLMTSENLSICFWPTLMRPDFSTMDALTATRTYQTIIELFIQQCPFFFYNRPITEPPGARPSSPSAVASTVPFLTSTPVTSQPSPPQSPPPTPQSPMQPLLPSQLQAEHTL
# UniProt Q9NX61: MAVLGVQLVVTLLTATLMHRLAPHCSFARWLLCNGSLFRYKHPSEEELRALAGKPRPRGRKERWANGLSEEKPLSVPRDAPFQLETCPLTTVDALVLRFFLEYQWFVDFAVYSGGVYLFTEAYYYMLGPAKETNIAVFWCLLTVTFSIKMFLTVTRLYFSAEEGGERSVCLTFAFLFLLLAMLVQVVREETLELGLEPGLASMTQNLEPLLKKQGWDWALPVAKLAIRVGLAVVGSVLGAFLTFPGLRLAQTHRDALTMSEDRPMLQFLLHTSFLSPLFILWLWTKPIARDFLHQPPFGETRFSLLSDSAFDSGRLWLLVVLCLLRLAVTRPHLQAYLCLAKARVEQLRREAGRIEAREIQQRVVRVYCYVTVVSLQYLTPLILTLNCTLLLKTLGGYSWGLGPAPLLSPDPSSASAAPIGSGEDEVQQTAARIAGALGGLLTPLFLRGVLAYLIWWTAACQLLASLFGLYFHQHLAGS
# UniProt Q9NTJ4: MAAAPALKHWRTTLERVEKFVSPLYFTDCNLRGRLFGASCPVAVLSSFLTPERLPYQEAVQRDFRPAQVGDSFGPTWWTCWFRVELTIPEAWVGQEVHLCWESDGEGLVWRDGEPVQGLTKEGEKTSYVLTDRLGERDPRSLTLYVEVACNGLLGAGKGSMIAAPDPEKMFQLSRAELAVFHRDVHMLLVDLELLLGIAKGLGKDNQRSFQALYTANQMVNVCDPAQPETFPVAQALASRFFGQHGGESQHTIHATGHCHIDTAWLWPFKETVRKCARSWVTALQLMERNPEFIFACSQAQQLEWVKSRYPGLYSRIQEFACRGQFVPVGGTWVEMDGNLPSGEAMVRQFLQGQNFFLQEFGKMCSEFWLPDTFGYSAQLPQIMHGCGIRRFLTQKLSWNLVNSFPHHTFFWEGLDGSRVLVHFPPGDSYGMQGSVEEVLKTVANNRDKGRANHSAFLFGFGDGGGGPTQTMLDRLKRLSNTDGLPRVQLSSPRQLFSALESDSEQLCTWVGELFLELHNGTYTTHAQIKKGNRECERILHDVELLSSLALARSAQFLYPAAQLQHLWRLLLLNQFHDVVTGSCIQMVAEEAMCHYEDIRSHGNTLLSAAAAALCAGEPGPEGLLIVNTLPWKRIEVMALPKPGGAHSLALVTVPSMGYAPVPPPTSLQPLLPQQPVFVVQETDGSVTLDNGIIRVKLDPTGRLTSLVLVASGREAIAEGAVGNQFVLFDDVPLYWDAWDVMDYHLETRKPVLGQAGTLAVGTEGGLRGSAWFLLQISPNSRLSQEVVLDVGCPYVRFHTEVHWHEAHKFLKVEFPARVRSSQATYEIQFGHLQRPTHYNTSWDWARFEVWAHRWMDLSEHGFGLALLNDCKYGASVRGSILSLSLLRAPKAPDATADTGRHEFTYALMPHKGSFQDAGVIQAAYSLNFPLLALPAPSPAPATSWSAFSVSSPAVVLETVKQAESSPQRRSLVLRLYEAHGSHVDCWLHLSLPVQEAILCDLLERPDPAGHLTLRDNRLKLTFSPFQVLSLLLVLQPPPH
# UniProt Q9NX18: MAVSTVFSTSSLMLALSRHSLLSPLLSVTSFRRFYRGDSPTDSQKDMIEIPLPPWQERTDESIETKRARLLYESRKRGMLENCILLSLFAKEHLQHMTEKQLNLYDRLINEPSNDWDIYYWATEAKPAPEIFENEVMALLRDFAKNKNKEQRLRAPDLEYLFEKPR
# UniProt Q9NRP4: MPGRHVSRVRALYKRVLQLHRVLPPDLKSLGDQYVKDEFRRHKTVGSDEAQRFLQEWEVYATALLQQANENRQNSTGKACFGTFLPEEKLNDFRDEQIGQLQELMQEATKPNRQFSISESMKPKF
# UniProt Q9NYP3: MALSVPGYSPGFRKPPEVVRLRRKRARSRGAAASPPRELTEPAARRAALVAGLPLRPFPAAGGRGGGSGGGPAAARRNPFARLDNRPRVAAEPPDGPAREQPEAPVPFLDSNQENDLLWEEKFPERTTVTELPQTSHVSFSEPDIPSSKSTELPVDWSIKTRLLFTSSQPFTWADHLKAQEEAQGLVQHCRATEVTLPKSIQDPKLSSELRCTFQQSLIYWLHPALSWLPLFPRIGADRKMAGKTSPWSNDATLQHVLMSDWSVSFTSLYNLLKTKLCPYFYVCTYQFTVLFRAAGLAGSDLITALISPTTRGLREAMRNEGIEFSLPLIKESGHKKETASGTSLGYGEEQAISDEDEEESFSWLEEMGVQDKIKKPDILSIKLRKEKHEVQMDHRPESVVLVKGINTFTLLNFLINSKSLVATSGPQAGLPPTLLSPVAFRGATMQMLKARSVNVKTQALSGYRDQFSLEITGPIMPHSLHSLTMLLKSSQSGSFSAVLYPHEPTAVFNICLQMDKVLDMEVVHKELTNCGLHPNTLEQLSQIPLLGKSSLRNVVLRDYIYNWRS
# UniProt Q9NVQ4: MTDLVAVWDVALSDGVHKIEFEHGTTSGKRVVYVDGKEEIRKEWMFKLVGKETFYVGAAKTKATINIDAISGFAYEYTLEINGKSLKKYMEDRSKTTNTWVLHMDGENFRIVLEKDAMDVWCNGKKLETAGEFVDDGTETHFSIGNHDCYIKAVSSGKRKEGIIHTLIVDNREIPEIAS
# The other results are listed elsewhere or left out. Small differences around the control level are noise.
# Compound: CN[C@@H]1C[C@H]2O[C@@](C)([C@@H]1OC)n1c3ccccc3c3c4c(c5c6ccccc6n2c5c31)C(=O)NC4 [staurosporine]
# Experiment: log2 fold change of tryptic peptide abundance, ligand vs vehicle (limited proteolysis) (log2 ratio); higher = more trypsin-susceptible (destabilized)
# Conditions: ligand concentration: 20 uM; sample: K562 cleared lysate; digestion: 4 min, 22 C (HT-PELSA RT4min, Orbitrap Astral)
row,Target,log2 fold change
1,"ATG3 (peptide sequence: IVEACKAK, peptide start residue: 178) (UniProt Q9NT62)",0.518
2,"PANK4 (peptide sequence: NIPHEAFVYQK, peptide start residue: 161) (UniProt Q9NVE7)",0.599
3,"UniProt Q9NXF7 (peptide sequence: DHATLNGALQFATK, peptide start residue: 137)",-0.227
4,"EURL (peptide sequence: LLPQFDSQVPK, peptide start residue: 131) (UniProt Q9NYK6)",-0.0628
5,"EXOC1 (peptide sequence: VIKEYPGK, peptide start residue: 812) (UniProt Q9NV70)",0.662
6,"ACTR10 (peptide sequence: CGFAGETGPR, peptide start residue: 27) (UniProt Q9NZ32)",-0.332
7,"MTMR4 (peptide sequence: LLNTAVPR, peptide start residue: 704) (UniProt Q9NYA4)",-0.31
8,"CTNNBIP1 (peptide sequence: VLLMLRK, peptide start residue: 22) (UniProt Q9NSA3)",-0.135
9,"POLE4 (peptide sequence: ADPDVTLAGQEAIFILAR, peptide start residue: 52) (UniProt Q9NR33)",-0.237
10,"STRN4 (peptide sequence: KNAALDVEPIHAFR, peptide start residue: 475) (UniProt Q9NRL3)",-0.302
11,"NRBP2 (peptide sequence: HSLSDPNMR, peptide start residue: 272) (UniProt Q9NSY0)",0.134
12,"NSMCE4A (peptide sequence: TFEISEPVITPSQR, peptide start residue: 366) (UniProt Q9NXX6)",-0.278
13,"NUDT15 (peptide sequence: NVHFASVVNSFIEK, peptide start residue: 74) (UniProt Q9NV35)",0.858
14,"UniProt Q9NRY4 (peptide sequence: FIRPSDR, peptide start residue: 578)",0.309
15,"FAM120C (peptide sequence: AHQLVLPPCDVVIK, peptide start residue: 271) (UniProt Q9NX05)",0.0519
16,"ARGLU1 (peptide sequence: RVEEELEKR, peptide start residue: 141) (UniProt Q9NWB6)",0.342
17,"TMEM161A (peptide sequence: WANGLSEEKPLSVPR, peptide start residue: 64) (UniProt Q9NX61)",0.0925
18,"MAN2C1 (peptide sequence: GSMIAAPDPEK, peptide start residue: 159) (UniProt Q9NTJ4)",-1.05
19,"TERF2IP (peptide sequence: QDDIDLQKDDEDTR, peptide start residue: 365) (UniProt Q9NYB0)",-0.117
20,"SDHAF2 (peptide sequence: TDESIETKR, peptide start residue: 59) (UniProt Q9NX18)",-0.65
21,"UniProt Q9NRP4 (peptide sequence: QFSISESMKPKF, peptide start residue: 114)",1.12
22,"APOBEC3C (peptide sequence: NQVDSETHCHAER, peptide start residue: 57) (UniProt Q9NRW3)",-0.102
23,"DONSON (peptide sequence: ALSVPGYSPGFR, peptide start residue: 2) (UniProt Q9NYP3)",0.128
24,"FAIM (peptide sequence: DAMDVWCNGK, peptide start residue: 116) (UniProt Q9NVQ4)",0.297
25,"C19orf12 (peptide sequence: LLCSLSGER, peptide start residue: 22) (UniProt Q9NSK7)",0.0697
26,"BCLAF1 (peptide sequence: MIASDSHRPEVK, peptide start residue: 537) (UniProt Q9NYF8)",-0.233
27,"MTMR10 (peptide sequence: MFSLKPPKPTFR, peptide start residue: 1) (UniProt Q9NXD2)",-0.14

# Looked up one by one from the entries so far (2):
row,Target,log2 fold change
4,"EURL (peptide sequence: LLPQFDSQVPK, peptide start residue: 131) (UniProt Q9NYK6)",-0.0628
7,"MTMR4 (peptide sequence: LLNTAVPR, peptide start residue: 704) (UniProt Q9NYA4)",-0.31
